Test results as given in PubChem BioAssay AID2685 (National Center for Advancing Translational Sciences (NCATS), 2010).
This is one part of the list. These are further read-outs of the screen, such as a control signal, another cell line or another target. No call is given for them. Compounds called inactive in the main read-out are mostly missing here. Words in brackets tell the shape of the fitted curve; partial curves, single points and poor fits give uncertain potencies.

Test: qHTS Assay for Lipid Storage Modulators in Drosophila S3 Cells;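 on cell number change: cells counted by Cell Tracker Red CMTPX staining in the red channel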
Settings: BODIPY lipid droplet fluorescence, 18-24 h; for cell number change: measured here: cell count max response, cells fed with added oleic acid
Procedure, shortened: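 Drosophila S3 cells loaded with oleic acid (400 uM, as added) and compounds at several concentrations; lipid droplets imaged by 488-nm laser-scanning cytometry, 500–530 nm intensity and object ratio to cell channel. Percent activity normalized to 20 uM Triacsin C.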

[1] = measured here: cell number channel AC50, cells fed with added oleic acid
[2] = measured here: lipid fluorescence (Fed channel) AC50, cells fed with added oleic acid

Structure (SMILES)	cell number change	AC50 [1]	AC50 [2]
CC(OC(=O)c1ccccc1O)C(=O)Nc1cccc(Cl)c1 (stereo not given)	31.5%	–	–
CC1CCCN(S(=O)(=O)c2ccc(S(=O)(=O)N3CCCN(Cc4ccccc4)C3)cc2)C1 (stereo not given)	-8.17%	–	–
CN1CCN(S(=O)(=O)c2cccc(S(=O)(=O)c3cccc(S(=O)(=O)N4CCN(C)CC4)c3)c2)CC1	-74.6%	7.31 µM [falling, partial curve, poor fit]	4.61 µM [falling, partial curve]
CCN(CC)CC(=O)Nc1ccc(-c2ccc(NC(=O)CN(CC)CC)c(OC)c2)cc1OC	–	–	0.146 µM [falling, full curve, poor fit]
O=C(C[n+]1cccc(CNC(=O)c2ccc(OC(F)F)cc2)c1)c1ccccc1	18.5%	–	11.2 µM [rising, single point]
CN1CCN(CCCNC(=O)c2cc3c(-c4ccc(Cl)cc4)nn(C)c3s2)CC1	31.8%	29.1 µM [rising, single point]	16.4 µM [falling, single point]
CCC(=O)c1ccc(OCC(=O)Nc2ccc(N3CCOCC3)cc2N2CCOCC2)cc1	-47.3%	1.64 µM [falling, full curve]	1.64 µM [falling, full curve]
O=C(Nc1cccc(S(=O)(=O)N2CCCCCC2)c1)C1CCN(C(=O)c2ccc(Cl)cc2)CC1	12.9%	–	1.16 µM [rising, full curve]
Cc1cc(C)cc(N(CC(=O)NCc2cccnc2)S(C)(=O)=O)c1	8.99%	–	29.1 µM [rising, single point]
CCn1c(=O)cc(OCC(=O)NCCCN2CCN(c3cccc(Cl)c3)CC2)c2ccccc21	-3.03%	–	5.8 µM [rising, single point]
CC(C)Oc1ccc(S(=O)(=O)N2CCCCC2)cc1NC(=O)C1CCCC1	-1.38%	–	11.6 µM [rising, single point]
Cn1c(=O)c2c(ncn2CC(O)CNc2ccc(Cl)cc2)n(C)c1=O (stereo not given)	19.6%	0.00517 µM [rising, full curve, poor fit]	–
CCC1=Nc2cc(C(=O)N3CCCCC3)ccc2Sc2ccc(C)cc21	23.3%	–	29.1 µM [rising, single point]
O=C(c1cccs1)N(c1ccc(Cl)cc1)C1C=CS(=O)(=O)C1 (stereo not given)	-2.16%	0.146 µM [falling, single point]	0.146 µM [falling, full curve, poor fit]
CC(=O)c1c(N2CCN(c3cccc(Cl)c3)CC2)nc(=S)n(-c2ccccc2)c1C	-2.42%	–	–
O=C(COC(=O)c1ccccc1F)c1ccc(-n2nncc2-c2ccco2)cc1	-5.05%	–	–
COc1cccc(C(=O)N(Cc2cc3cc(C)ccc3[nH]c2=O)CC2CCCO2)c1 (stereo not given)	–	0.517 µM [rising, full curve]	1.84 µM [rising, partial curve]
CCOc1ccc(NC(=O)C2=NN(c3ccccc3)C(=O)CC2)cc1S(=O)(=O)N1CCCCC1	4.33%	–	0.82 µM [rising, single point]
Cc1csc(NC(=O)CSc2nnc(-c3ccco3)n2C)n1	2.91%	–	0.00461 µM [rising, full curve, poor fit]
Oc1ccc(NC(=S)Nc2ccc(F)cc2)cc1	-7.69%	–	6.51 µM [falling, single point]

Complete entries from above.
Oc1ccc(NC(=S)Nc2ccc(F)cc2)cc1 as listed: cell number change: -7.69%; AC50 [2]: 6.51 µM [falling, single point]
CCOc1ccc(NC(=O)C2=NN(c3ccccc3)C(=O)CC2)cc1S(=O)(=O)N1CCCCC1 as listed: cell number change: 4.33%; AC50 [2]: 0.82 µM [rising, single point]
Cn1c(=O)c2c(ncn2CC(O)CNc2ccc(Cl)cc2)n(C)c1=O (stereo not given) as listed: cell number change: 19.6%; AC50 [1]: 0.00517 µM [rising, full curve, poor fit]
CN1CCN(S(=O)(=O)c2cccc(S(=O)(=O)c3cccc(S(=O)(=O)N4CCN(C)CC4)c3)c2)CC1 as listed: cell number change: -74.6%; AC50 [1]: 7.31 µM [falling, partial curve, poor fit]; AC50 [2]: 4.61 µM [falling, partial curve]

Remaining list, next part:

Structure (SMILES)	cell number change	AC50 [1]	AC50 [2]
CC(C)(C)c1ccc(Oc2ccc(NC(=O)c3ccco3)cn2)cc1	-24.1%	–	29.1 µM [falling, single point]
COc1ccc(NC(=O)CCOc2ccc(C)cc2)cc1S(=O)(=O)N1CCOCC1	8.74%	–	0.116 µM [falling, full curve, poor fit]
CC(C)(C)c1ccc(OCc2ccc(C(=O)N3CCOCC3)o2)cc1	-47.4%	20.6 µM [falling, single point]	18.4 µM [falling, single point]
O=C(CSc1ccccc1)Nc1ccc2c(c1)OCO2	15.9%	–	–
COc1ccc(OC)c(C(=O)NC2CC(C)(C)Cc3c2cnn3-c2ccccc2)c1 (stereo not given)	1.79%	–	–
Cc1ccc(-n2cc(CN(C)Cc3ncc[nH]3)c(-c3cccc(C)c3)n2)cc1	-32.4%	29.1 µM [falling, single point]	20.6 µM [falling, partial curve]
COc1ccc(C(=O)Nc2ccc(S(=O)(=O)Nc3nccc(C)n3)cc2)cc1OC	49.8%	9.2 µM [rising, partial curve, poor fit]	–
CC1CC(C)(C)CC2(C1)NC(=O)N(CC(=O)N1CCN(Cc3ccc(C#N)cc3)CC1)C2=O (stereo not given)	-54.5%	1.84 µM [falling, full curve]	–
CCC(=O)c1ccccc1OCC(=O)Nc1c(C)cccc1C	–	–	3.26 µM [falling, single point]
O=C(N[C@@H](c1ccccc1)[C@@H]1C[C@H]1C(=O)O)OCc1ccccc1	–	–	29.1 µM [rising, single point]
O=C(CSCC(=O)N1CCCc2ccccc21)Nc1nc(-c2ccccc2)cs1	-46.5%	29.1 µM [falling, single point]	9.2 µM [falling, partial curve, poor fit]
O=C1N=C(N2CCCCC2)SC1=C1CCCC1	8.63%	4.11 µM [rising, single point]	–
COc1ccc(CCNC(=O)C2CCC(=O)N(C3CC3)C2)c(OC)c1 (stereo not given)	-15.8%	–	6.51 µM [falling, single point]
Cc1cccc(C(=O)N[C@H](C(=O)Nc2nc3ccccc3[nH]2)C(C)C)c1	-49.5%	29.1 µM [falling, single point]	–
COc1ccccc1NC(=O)c1c(O)c2ccccc2[nH]c1=O	21.5%	–	7.31 µM [rising, partial curve, poor fit]
CC1CC(c2ccccc2)NS(=O)(=O)O1 (stereo not given)	28.4%	0.517 µM [rising, full curve, poor fit]	0.651 µM [rising, full curve]
COC(=O)CNC(c1ccccc1)c1cc(Br)ccc1N (stereo not given)	7.25%	–	–
CCOC(=O)c1ccc(NC(=O)c2cc(OC)c(OC)c(OC)c2Br)cc1	2.22%	–	0.0651 µM [rising, full curve, poor fit]
CCOc1ccc(CCNC(=O)CS(=O)(=O)Cc2nc(-c3cccc(OC)c3)oc2C)cc1	31.7%	18.4 µM [rising, single point]	6.51 µM [falling, single point]
CCCNC(=O)CN(C)CC(=O)Nc1ccccc1C#N	–	1.3 µM [rising, full curve]	–

Structure (SMILES)	cell number change	AC50 [1]	AC50 [2]
COc1cc(/C(C)=N/NC(=O)c2nnn(-c3nonc3N)c2-c2cccs2)ccc1O	-1.18%	–	0.13 µM [rising, full curve, poor fit]
C=CCn1c(P(=O)(O)c2ccccc2)nc2ccccc21	-35.4%	14.6 µM [falling, partial curve]	–
CC(NS(=O)(=O)c1ccccc1)C(=O)NCc1ccco1 (stereo not given)	7.52%	–	–
Cc1ccc(C(=O)Nc2ccc(O)c(C(=O)O)c2)o1	7.65%	–	–
Cc1c(Cl)cn2c(=O)cc(CN3CCN(c4ccc(F)cc4)CC3)nc2c1Cl	34%	1.16 µM [rising, partial curve]	1.3 µM [rising, full curve, poor fit]
CC/C(O)=C1\C(=O)CC(c2ccccc2)CC1=NC(C)C (stereo not given)	–	–	10.3 µM [rising, partial curve]
Cc1cc(C)c(S(=O)(=O)N2CCN(CCN3C(=O)c4cccc5cccc(c45)C3=O)CC2)cc1[N+](=O)[O-]	41.6%	23.1 µM [rising, single point]	23.1 µM [rising, single point]
COc1ccc2nc(C)cc(Sc3nc4ccccc4s3)c2c1	–	0.00461 µM [rising, full curve, poor fit]	–
O=C(CSCc1c(F)cccc1Cl)NCc1cccnc1	3.65%	–	–
N=c1c[n+](-c2ccc(Cl)cc2)[n-]o1	-0.342%	–	23.1 µM [rising, single point]
CC(Oc1cc2oc(=O)c3c(c2cc1Cl)CCC3)C(=O)NCc1cccnc1 (stereo not given)	-34.4%	29.1 µM [falling, single point]	14.6 µM [falling, partial curve, poor fit]
CCOc1ccc(NC(=O)CN(C2CCCCC2)S(C)(=O)=O)cc1	7.96%	–	2.31 µM [rising, partial curve]
CCOC(=O)C1CCN(C(=O)COC(=O)CNC(=O)c2ccc(OC)cc2)CC1	25.3%	6.51 µM [rising, single point]	6.51 µM [rising, partial curve]
CC(C)(C)CC(C)(C)NC(=O)CSCC(=O)Nc1ccc2ccccc2c1	-78.3%	8.2 µM [falling, partial curve]	1.46 µM [falling, full curve, poor fit]
O=C1CC(CCC(=O)NC2CC2)c2ccccc2N1 (stereo not given)	1.49%	–	0.0651 µM [rising, full curve, poor fit]
CC1=NN(c2nc(-c3ccc(Cl)cc3)cs2)C(=O)C1	-33.1%	1.46 µM [falling, full curve, poor fit]	–
CC(=O)c1ccc(Sc2nnc(C)s2)c([N+](=O)[O-])c1	-14.7%	–	8.2 µM [falling, partial curve, poor fit]
CCOc1ccccc1-n1c(SCC(=O)N(CC)CC)nnc1-c1ccccn1	-5.01%	0.164 µM [falling, full curve, poor fit]	0.146 µM [falling, full curve, poor fit]
